These are yes or no findings as the source states them, for the method shown. Some results given as binding are weak or reduced against the parent protein; the word gives no strength. Tags and fused reporters may be left off the sequences shown.
T1: MST1 (mammalian sterile 20-like kinase 1), Gal4 DNA-binding domain fusion in pGBKT7 (human) (UniProt Q13043)
T1 sequence: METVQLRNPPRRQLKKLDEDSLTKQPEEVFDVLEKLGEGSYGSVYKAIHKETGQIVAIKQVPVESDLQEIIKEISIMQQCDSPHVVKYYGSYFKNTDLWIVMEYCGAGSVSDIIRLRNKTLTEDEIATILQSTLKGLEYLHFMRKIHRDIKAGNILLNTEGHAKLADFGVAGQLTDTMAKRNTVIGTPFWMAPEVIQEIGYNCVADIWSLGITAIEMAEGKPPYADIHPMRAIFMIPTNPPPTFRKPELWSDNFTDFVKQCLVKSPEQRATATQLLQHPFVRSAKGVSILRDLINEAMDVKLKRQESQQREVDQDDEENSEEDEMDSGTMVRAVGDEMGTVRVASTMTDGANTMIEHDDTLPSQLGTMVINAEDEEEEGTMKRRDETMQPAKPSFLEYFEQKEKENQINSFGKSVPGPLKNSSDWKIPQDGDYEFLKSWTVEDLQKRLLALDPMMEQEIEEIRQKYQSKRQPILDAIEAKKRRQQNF

T2: MST2 (mammalian sterile 20-like kinase 2), Gal4 DNA-binding domain fusion in pGBKT7 (human) (UniProt Q13188)
T2 sequence: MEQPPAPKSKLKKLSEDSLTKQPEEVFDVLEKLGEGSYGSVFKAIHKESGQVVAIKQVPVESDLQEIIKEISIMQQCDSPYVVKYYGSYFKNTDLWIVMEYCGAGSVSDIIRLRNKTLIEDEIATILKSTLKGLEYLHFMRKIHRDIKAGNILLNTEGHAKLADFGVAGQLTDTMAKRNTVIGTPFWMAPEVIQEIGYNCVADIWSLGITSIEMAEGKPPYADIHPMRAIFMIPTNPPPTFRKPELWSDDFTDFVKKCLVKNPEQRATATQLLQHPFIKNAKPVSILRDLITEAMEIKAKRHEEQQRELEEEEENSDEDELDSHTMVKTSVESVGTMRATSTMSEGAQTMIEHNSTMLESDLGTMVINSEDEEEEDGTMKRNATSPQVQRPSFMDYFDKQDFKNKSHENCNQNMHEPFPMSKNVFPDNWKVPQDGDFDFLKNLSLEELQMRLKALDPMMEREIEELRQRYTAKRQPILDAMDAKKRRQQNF

B1: RASSF1A (Ras association domain family 1A), Gal4 activation domain fusion in pGADT7 (protein, UniProt Q9NS23-2 1-340)
chain: MSGEPELIELRELAPAGRAGKGRTRLERANALRIARGTACNPTRQLVPGRGHRFQPAGPATHTWCDLCGDFIWGVVRKGLQCAHCKFTCHYRCRALVCLDCCGPRDLGWEPAVERDTNVDEPVEWETPDLSQAEIEQKIKEYNAQINSNLFMSLNKDGSYTGFIKVQLKLVRPVSVPSSKKPPSLQDARRGPGRGTSVRRRTSFYLPKDAVKHLHVLSRTRAREVIEALLRKFLVVDDPRKFALFERAERHGQVYLRKLLDDEQPLRLRLLAGPSDKALSFVLKENDSGEVNWDAFSMPELHNFLRILQREEEEHLRQILQKYSYCRQKIQEALHACPLG
B2: RASSF1AΔSARAH, Gal4 activation domain fusion in pGADT7 (protein, UniProt Q9NS23-2)
chain: MSGEPELIELRELAPAGRAGKGRTRLERANALRIARGTACNPTRQLVPGRGHRFQPAGPATHTWCDLCGDFIWGVVRKGLQCAHCKFTCHYRCRALVCLDCCGPRDLGWEPAVERDTNVDEPVEWETPDLSQAEIEQKIKEYNAQINSNLFMSLNKDGSYTGFIKVQLKLVRPVSVPSSKKPPSLQDARRGPGRGTSVRRRTSFYLPKDAVKHLHVLSRTRAREVIEALLRKFLVVDDPRKFALFERAERHGQVYLRKLLDDEQPLRLRLLAGPSDKALSFVLKENDSGPLG

What was measured:
[1] = molecular target: T1, MST1 (mammalian sterile 20-like kinase 1), Gal4 DNA-binding domain fusion in pGBKT7 (human); test: two-hybrid; Matchmaker system, yeast strain PJ69-4A cotransformed; growth on SD minimal medium without adenine and histidine; beta-galactosidase reporter quantified with ONPG at 420 nm
[2] = molecular target: T2, MST2 (mammalian sterile 20-like kinase 2), Gal4 DNA-binding domain fusion in pGBKT7 (human); test: as above

Binder	binding [1]	binding [2]
B1	binds	binds
B2	no binding	no binding

Reference: paper PMC3337622
